Data as given in patent publication US20250326772A1, “MRGPRX2 ANTAGONISTS, PHARMACEUTICAL COMPOSITION INCLUDING MRGPRX2 ANTAGONIST, AND METHOD OF TREATING MRGPRX2-MEDIATED DISEASE OR DISORDER” (KYORIN PHARMACEUTICAL CO., LTD., priority 2024, published 2025).

Amino acid sequences for entries named in this document (tags omitted).
UniProt Q96LB1, whole entry: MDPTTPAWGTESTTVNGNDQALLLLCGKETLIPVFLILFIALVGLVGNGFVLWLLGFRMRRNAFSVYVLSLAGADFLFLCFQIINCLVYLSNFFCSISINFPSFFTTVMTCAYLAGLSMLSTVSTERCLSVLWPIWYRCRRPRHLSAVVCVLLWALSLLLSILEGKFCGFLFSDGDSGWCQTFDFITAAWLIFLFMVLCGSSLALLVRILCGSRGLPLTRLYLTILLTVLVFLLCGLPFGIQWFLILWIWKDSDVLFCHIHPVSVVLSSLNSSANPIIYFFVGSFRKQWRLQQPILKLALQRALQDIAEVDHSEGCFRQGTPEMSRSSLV

Target: MRGPRX2 (Homo sapiens, UniProt Q96LB1)
Test: MRGPRX2 reporter cell assay (NFAT-RE luciferase, Substance P stimulation)
Assay type: cell-based
Conditions: U2OS cells stably transfected with MRGPRX2 and NFAT-RE luciferase reporter; Substance P at EC80; class symbols
Description: MRGPRX2 Reporter Cell Assays U2OS cells (ATCC, Manassas, VA) were stably transfected with MRGPRX2 expression clones (GeneCopoeia, Rockville, MD) and the pGL4.30 [luc2P/NFAT-RE/Hygro] reporter plasmid (Promega, Madison, WI). Clonal cells were maintained in Growth Media (McCoy's 5A, 10% FBS, 495 μg/ml hygromycin, 2 μg/ml puromycin, 100 units/ml penicillin, and 100 ug/ml streptomycin). The day before assay, cells were plated to white 384-well microplates at 3000 (MRGPRX2) cells/well in 10 ul Assay Media (McCoy's 5A, 2% charcoal dextran stripped FBS, 100 units/ml penicillin, and 100 ug/ml streptomycin) (Gibco, Thermo Fisher) and allowed to adhere overnight. The following day, serially diluted compound stocks were added directly to the cells (final DMSO concentration of 0.5%) and pre-incubated for 30 minutes at 37° C., 5% CO2. The final concentration of Substance P (Tocris, Minneapolis, MN, or PEPTIDE INSTITUTE, Osaka, Japan) corresponding to EC80 was added to stimulate the (MRGPRX2) cells. Cells were returned to the incubator for 6 hrs, after which 5 ul of ONE-GLO substrate (Promega) was added. Luminescence was read within 15 minutes (BioTek, Winooski, VT or infinite M1000Pro, Tecan Japan, Kanagawa, Japan). Percent inhibition for each test compound was calculated using the formula: […] where: • A=the luminescence count of the “test compound” well • B=the median luminescence count of the “Vehicle (0.5% DMSO)” wells • C═the median luminescence count of the “Vehicle (0.5% DMSO)+5 uM of substance P” wells The mean percent inhibition of each concentration of “test compound” was used to generate dose-response curves. IC50 values were calculated using a four-parameter logistic fit to the data using GraphPad Prism software. • +++: […]

Question: For `Cn1cc(-c2[nH]c3ncccc3c2-c2cscc2C#N)c(C(F)F)n1`, which IC50 is on record?
Answer: Its IC50 is less than 10 nM.

Question: `COc1ncc(F)cc1-c1c(-c2c(C(F)F)nn3c2OC[C@@H](F)C3)[nH]c2ncccc12` was tested. Which IC50 did it give?
Answer: Its IC50 is less than 10 nM.

Question: `COc1ccc(F)cc1-c1[nH]c2ncccc2c1-c1cccc2[nH]cnc12` was tested. Which IC50 did it give?
Answer: Its IC50 is 100 to 1000 nM.

Question: `FC(F)c1ncsc1-c1c(-c2c(C(F)F)nn3c2OCCC3)[nH]c2ncccc12` was tested. Which IC50 did it give?
Answer: Its IC50 is 10 to 100 nM.

Question: With `Cn1cc(-c2c(-c3c(C(F)F)nn4c3OC[C@@H](NC(=O)C3(C#N)CC3)C4)[nH]c3ncccc23)c(OC(F)F)n1` as the compound, how does the IC50 read?
Answer: Its IC50 is less than 10 nM.

Question: For `COc1ccc(F)cc1-c1[nH]c2ncccc2c1C1=CC(C)(C)CCC1=O`, which IC50 is on record?
Answer: The IC50 was 100 to 1000 nM.

Question: How did the IC50 turn out when `COc1ccc(F)cc1-c1[nH]c2ncccc2c1C1=CCCC1` was run?
Answer: Its IC50 is 100 to 1000 nM.

The match of structure and compound is tentative.
